Test results: PubChem BioAssay AID504444 (National Center for Advancing Translational Sciences (NCATS), 2011)
The campaign covered roughly 360,000 compounds. About 7,500 (2.1%) were called active. The shares of active, inactive and inconclusive entries below differ from those in the screen. The call rests on the fitted dose curve; in most records, active means well fitted inhibition curve with a large enough effect; inconclusive means small, poorly fitted or top-dose-only effect, or effect the other way; inactive means flat fitted curve, though single readings scatter. Potencies beside an inconclusive call are fits to weak or partial responses and may not hold up.

Experiment: Nrf2 qHTS screen for inhibitors; further: nearly all actives have a fitted effect of over 60% in size
Details: A549 ARE-Fluc reporter, luciferase luminescence, 18-24 h; activity change, negative = inhibition: at 46 µM (top of the series)
Method in brief: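 Concentration-response testing used A549 ARE_Fluc cells at 5000 cells/well. Following an 18-24 h compound incubation, viability was read by fluorescence (Ex 405/Em 525) and luciferase output by luminescence.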
On the % scale 0 is the no-effect control and ±100 the full control effect; potency means the concentration at half of the fitted maximal effect.

SMILES	Potency	activity change, negative = inhibition
O=C(COc1cccc2ccccc12)N1CCN(c2ccccn2)CC1	inconclusive: 10.3 µM [falling, single point]	–
O=C(COc1ccccc1-c1ccccc1)N/N=C/c1ccc2ccccc2c1	inconclusive: 20.6 µM [activator, single point]	–
CC(C(=O)Nc1cc([N+](=O)[O-])ccc1Cl)N1CCN(c2ccccc2O)CC1 (stereo unspecified)	inconclusive: 18.4 µM [activator, partial curve, poor fit]	–
N/C(=N\OC(=O)Cc1cccs1)c1ccc(Cl)cc1	inconclusive: 16.4 µM [activator, partial curve]	–
CCC(C)c1ccc(NC(=O)C2CCN(c3ccc(C(F)(F)F)cn3)CC2)cc1 (stereo unspecified)	inconclusive: 25.9 µM [falling, partial curve, poor fit]	–
COc1cc(/C=C/C(=O)OCC(=O)NC(=O)NC23CC4CC(CC(C4)C2)C3)ccc1OCC#N	inconclusive: 29.1 µM [falling, single point]	–
O=C(C1CCC1)N1CCN(c2ccnc3cc(Cl)ccc23)CC1	–	inactive: -25.6%
COc1ccccc1NC(=S)NCc1ccccc1Cl	–	inactive: 2.91%
O=C(COC(=O)c1ccc(F)cc1F)Nc1ncccn1	inconclusive: 0.0041 µM [falling, full curve, poor fit]	–
O=C(NCCSCc1ccccc1)c1ccc(Cl)c(S(=O)(=O)N2CCOCC2)c1	inconclusive: 29.1 µM [falling, single point]	–
CC(=O)Nc1ccc(NC(=O)Cn2nc([N+](=O)[O-])c(Br)c2C)cc1	–	inactive: -7.15%
O=c1[nH]c2cccc(F)c2n2cccc12	inconclusive: 3.66 µM [falling, partial curve]	–
Cc1ccccc1N1CC(c2nnc(NC(=O)c3ccco3)s2)CC1=O (stereo unspecified)	–	inactive: 21.9%
NC(=O)CC(NC(=O)c1ccc(Br)cc1)c1ccc(N2CCCCCCC2)c([N+](=O)[O-])c1 (stereo unspecified)	inconclusive: 18.4 µM [falling, single point]	–
CC1(c2ccccc2)NC(=O)N(CC(=O)N2CCN(S(=O)(=O)c3cccc(C(F)(F)F)c3)CC2)C1=O (stereo unspecified)	inconclusive: 29.1 µM [falling, partial curve, poor fit]	–
Cc1ccccc1-c1nc(C(=O)NCC2CCCO2)cc2c1[nH]c1ccccc12 (stereo unspecified)	active: 23.1 µM	–
O=C(COc1ccc2ccccc2c1Br)N1CCCCC1	inconclusive: 4.61 µM [activator, partial curve]	–
COc1ccc(Cc2nc3ccc(C(=O)NCc4cc(C)no4)cc3o2)cc1OC	inconclusive: 23.1 µM [falling, single point]	–
COc1ccc(C(O)c2nccc3cc(OC)c(OC)cc23)cc1OC (stereo unspecified)	active: 20.6 µM	–
CCN(CC)C(=O)CN(c1cc2c(cc1OC)oc1ccccc12)S(=O)(=O)c1ccccc1	active: 16.4 µM	–
CSc1c(CC(=O)NCCCO)n(Cc2ccccc2)c2ccccc12	inconclusive: 8.2 µM [falling, partial curve, poor fit]	–
CCOC(=O)C(=Cc1ccccc1OC)C(=O)OCC	inconclusive: 29.1 µM [activator, single point]	–
O=C(CNc1ccc(Br)cc1)Nc1ccc(S(=O)(=O)N2CCCC2)cc1	–	inactive: -19.8%

Quoted at random: 2 compounds from above, in no set order.
SMILES	Potency	activity change, negative = inhibition
N/C(=N\OC(=O)Cc1cccs1)c1ccc(Cl)cc1	inconclusive: 16.4 µM [activator, partial curve]	–
NC(=O)CC(NC(=O)c1ccc(Br)cc1)c1ccc(N2CCCCCCC2)c([N+](=O)[O-])c1 (stereo unspecified)	inconclusive: 18.4 µM [falling, single point]	–

(further entries)

SMILES	Potency	activity change, negative = inhibition
CCn1c(C(=O)Nc2ccc(C)cc2C)cc2sc(Cl)cc21	–	inactive: -3.06%
Cc1oc2ncnc(N3CCOCC3)c2c1C(=O)NCCc1ccccc1	inconclusive: 14.6 µM [activator, partial curve]	–
O=C(N/N=C1\CCCCc2ccccc21)c1ccccn1	inconclusive: 13 µM [activator, partial curve]	–
CSc1cccc(NC(=O)C2CCCN(S(=O)(=O)c3cccs3)C2)c1 (stereo unspecified)	inconclusive: 29.1 µM [falling, single point]	–
Oc1ccccc1C1=Nc2ccccc2N=C(c2cccs2)C1	inconclusive: 29.1 µM [falling, single point]	–
CCOC(=O)COc1ccc(C)cc1C(=O)c1ccn2nc(-c3ccc(Cl)cc3)cc2n1	–	inactive: 21.9%
COc1ccc(NC(=O)COC(=O)C(NC(=O)c2ccc(C)cc2)C(C)C)cn1 (stereo unspecified)	–	inactive: -0.0594%
O=C(Nc1ccc(Br)cc1)Nc1ccccc1Cl	inconclusive: 29.1 µM [falling, single point]	–
COc1cc2ccccc2cc1C(=O)Nc1ccc(Cl)cn1	inconclusive: 5.8 µM [activator, full curve]	–
COc1ccccc1-c1coc2c(CN(C)C)c(O)ccc2c1=O	–	inactive: -9.14%
O=C(O)CCCCCn1c(O)c(C=C2N=c3ccccc3=N2)sc1=S	inconclusive: 32.6 µM [activator, single point]	–
Cc1noc(C)c1COc1ccccc1C(=O)Nc1ccc(C(N)=O)cc1	inconclusive: 8.2 µM [falling, partial curve, poor fit]	–
COc1ccc(C2CN=NC23CCCc2ccccc2C3=O)cc1 (stereo unspecified)	inconclusive: 32.6 µM [falling, single point]	–
COc1cc(Br)c(C(=O)c2nccc3cc(OC)c(OC)cc23)cc1OC	inconclusive: 29.1 µM [activator, single point]	–
Oc1ccc(/C=N/N(Cc2ccccc2)c2ccccc2)cc1	inconclusive: 23.1 µM [falling, partial curve, poor fit]	–
COC(=O)C1=C(C)N(CCc2ccccc2)C(=O)/C1=C\c1ccco1	–	inactive: 3.86%
CC[N+]1=C(C)C(C)(C)c2cc(C)ccc21	active: 10.3 µM	–
CCN(CC)S(=O)(=O)c1cc(NC(=O)Cc2n[nH]c(=O)c3ccccc23)ccc1C	active: 25.9 µM	–
O=c1[nH]cnc2sc3c(c12)CCC3	inconclusive: 1.84 µM [falling, full curve]	–
CCOC(=O)c1sc(NC(=O)CN2C(=O)NC3(CCCCCCC3)C2=O)c(C(=O)OCC)c1C	inconclusive: 18.4 µM [falling, single point]	–
Nc1cc(N)cc(-c2nc3ccccc3[nH]2)c1	inconclusive: 32.6 µM [activator, single point]	–
COCCNC(=O)c1onc(CSc2cccc(OC)c2)c1C(=O)NCCOC	–	inactive: -6.74%
CCCn1c(=O)c2sccc2n2c(CCCC(=O)N3CCN(c4cccc(Cl)c4)CC3)nnc12	inconclusive: 23.1 µM [falling, single point]	–
